Data as given in US12161695B2 (priority 2018, dated 2024).

What was measured:
Assay type in all cases: cell-based
iGABAARI = assay: whole-cell patch-clamp single-channel currents in β cells of intact human islets, iGABAARI; settings: ND donors, room temperature, kinetic model fit
Text: (§1) Human islets were generously provided by the Nordic Network for Clinical Islet Transplantation, supported by EXODIAB and the Juvenile Diabetes Research Foundation. All procedures were approved by the regional ethics committee in Uppsala and informed consent obtained by appropriate measures from donors or their relatives. […]
(§2) The whole-cell patch-clamp configuration was obtained on intact islets using the blind patch-clamp technique (Hamill et al., 1981; Jin et al., 2011; Neher and Sakmann, 1976) and single-channel currents were recorded at room temperature (20-22° C.) or at 34° C. […] The access resistance was monitored and if it changed by more than 25%, the recording was rejected. The single-channel parameters (amplitude, frequency/opening rate, conductance, open probability Po, mean current Imean and mean open time To) were analyzed by Channel3 (Nicholas Laver, Derek Laver, the University of Newcastle, Australia) and Clampfit 10.5 (Molecular Devices, USA). […]

[1] = test system: iGABAARs in human pancreatic islet β cells; settings: human islets vs neuronal models
Text: as §1, §2

iGABAARII = assay: whole-cell patch-clamp single-channel currents in β cells of intact human islets, iGABAARII; settings: ND donors, room temperature, kinetic model fit
Text: as §1, §2

Question: For `NCCCC(=O)O` [GABA, gamma-aminobutyric acid], which “apparent affinity for GABA (Ka)” value (iGABAARI) is on record?
Answer: 20 nM

Question: What about the “affinity for GABA relative to models for neuronal GABAAR-mediated currents” value [1] of the same compound?
Answer: 100 fold

Question: What about the “apparent affinity for GABA (Ka)” value (iGABAARII) of the same compound?
Answer: 65 nM
